Measurements from the supplement of paper PMC5407854, “Inhibitor of ppGalNAc-T3-mediated O-glycosylation blocks cancer cell invasiveness and lowers FGF23 levels” (eLife, 2017).
Some of the results follow. Most values lie at the level of the controls, where differences are scatter.

What follows are molecules tested on ppGalNAc-T3 sensor (assay: T3 sensor activation Q score (MG/GFP ratio z-score vs DMSO controls) (SD units); higher = more sensor activation (inhibition of ppGalNAc-T3 glycosylation)). Conditions: HEK293 sensor cells; 10 µM; 6 h.
Description: (§1)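 Cells were treated with compound at 10 uM for 6 h, then MG/GFP ratio was read by flow cytometry (10,000 cells per well, duplicate wells). Q = (R - R_neg)/SD_neg relative to DMSO vehicle controls; the signal rises when the glycosyltransferase is inhibited.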

SMILES | T3 sensor activation Q score
COc1cc(OC)cc(C(=O)NC2C3CC4CC(C3)CC2C4)c1 (configuration not stated) | -0.965
O=[N+]([O-])c1ccccc1CN1CCC(O)CC1 | 0.49
CC(C)Sc1nc2ncnc(N)c2[nH]1 | 0.575
CCN1CCN(CC(O)COCC2COc3ccccc3O2)CC1 (configuration not stated) | -0.695
Cc1c(Cl)cccc1NS(=O)(=O)c1ccccc1 | -0.595
NS(=O)(=O)c1ccc(C23CC4CC(CC(C4)C2)C3)cc1 | 2.9
COc1cc(OC)c(C(C)=O)c(OC)c1 | 0.42
CC(=O)c1ccc(NC(=O)CN2CCCCC2)cc1 | 0.58
CCN(CC)CCN(C)Cc1ccc([N+](=O)[O-])cc1 | 0.15
Nc1ccc(S(=O)(=O)NCCO)cc1 | 2.15
Cc1ccccc1N1CCN(Cc2cc3c(cc2[N+](=O)[O-])OCO3)CC1 | -0.34
CN(C(=O)c1cccs1)c1ccccc1 | 0.28

Of the compounds above, these have a nitro group on carbon.
SMILES | T3 sensor activation Q score
O=[N+]([O-])c1ccccc1CN1CCC(O)CC1 | 0.49
CCN(CC)CCN(C)Cc1ccc([N+](=O)[O-])cc1 | 0.15
Cc1ccccc1N1CCN(Cc2cc3c(cc2[N+](=O)[O-])OCO3)CC1 | -0.34

Each molecule was assayed on ppGalNAc-T2 sensor (assay: T2 sensor activation Q score (MG/GFP ratio z-score vs DMSO controls) (SD units); higher = more sensor activation (inhibition of ppGalNAc-T2 glycosylation)). Conditions: HEK293 sensor cells; 10 µM; 6 h.
Description: as §1

SMILES | T2 sensor activation Q score
Cc1cc(C)c(S(=O)(=O)Nc2ccccc2)cc1S(=O)(=O)Nc1ccccc1 | -0.29
COc1cccc(N(C(C)=O)C2=C(N3CCCC3)C(=O)c3ccccc3C2=O)c1 | -0.615
COc1ccc(OCC(=O)NCCc2ccccc2)cc1 | 1.43
COc1cccc(N2C(=O)CC(N3CCN(C)CC3)C2=O)c1 (configuration not stated) | 0.285
COc1cc(OC)cc(C(=O)NC2C3CC4CC(C3)CC2C4)c1 (configuration not stated) | 0.545
CCOc1ccc(N=C(c2cccc([N+](=O)[O-])c2)N2CCOCC2)cc1 | -0.18
O=[N+]([O-])c1ccccc1CN1CCC(O)CC1 | 1.17
CCCC(=O)Nc1cc2oc3ccccc3c2cc1OC | -0.31
Cc1ccc(C)c(CN2CCC(O)CC2)c1 | -0.42
CC(C)Sc1nc2ncnc(N)c2[nH]1 | 1.35
CCOC(=O)N1CCN(Cc2ccc(Cl)cc2)CC1 | 0.805
CCOc1ccc(C(=O)N2CCN(Cc3ccccc3)CC2)cc1 | 1.24
COc1ccc(CN2CCC(O)CC2)c(OC)c1 | 0.385
CCN1CCN(CC(O)COCC2COc3ccccc3O2)CC1 (configuration not stated) | -0.545
CCc1ccc(CN2CCN(c3ccccn3)CC2)cc1 | 0.365
COc1ccccc1CNC(=O)Cc1ccc(OC)c(OC)c1 | -0.705
Cc1c(Cl)cccc1NS(=O)(=O)c1ccccc1 | -0.15
NS(=O)(=O)c1ccc(C23CC4CC(CC(C4)C2)C3)cc1 | 1.34
CCc1nc(NN)c2c3c(sc2n1)CCC3 | 0.745
CC(=O)Nc1cc2nc3ccccc3nc2cc1NC(C)=O | -0.475

SMILES | T2 sensor activation Q score
Cc1ccc(Nc2cc(-n3cccn3)ncn2)cc1 | -0.75
COc1cc(OC)c(C(C)=O)c(OC)c1 | -0.155
CC(=O)c1ccc(NC(=O)CN2CCCCC2)cc1 | -1.12
CCN(CC)CCN(C)Cc1ccc([N+](=O)[O-])cc1 | 0.28
COc1cc(S(=O)(=O)N2CCOCC2)c(OC)cc1Cl | 0.695
Fc1c(F)c(F)c(CSc2nc3ccccc3[nH]2)c(F)c1F | 0.84
Nc1ccc(S(=O)(=O)NCCO)cc1 | 1.22
O=[N+]([O-])c1ccc(/C=C/c2ccc(O)cc2)cc1 | -0.955
CCOc1ccccc1N1CCN(Cc2cc(Br)ccc2OC)CC1 | 0.15
COc1ccc(CN2CCCN(C)CC2)c(C)c1C | -0.12
COc1ccc(C2=NCCc3cc(OC)c(OC)cc32)cc1 | 0.8
CC(C)(C)NS(=O)(=O)c1ccccc1 | 0.64
Cc1cccc(N2CCN(Cc3ccoc3)CC2)c1C | 0.105
Cc1ccccc1C(=O)N(Cc1ccccc1)C(C)C | 1.23
Cc1ccccc1N1CCN(Cc2cc3c(cc2[N+](=O)[O-])OCO3)CC1 | -0.145
COc1ccc(C)cc1NC(=O)C(c1ccccc1)c1ccccc1 | -1.16
CNC(=O)C(=O)Nc1c(C)cccc1C | -1.01
COc1cccc(Oc2nc(N)[nH]c(=O)c2Br)c1 | 1.38
Cc1nc2sc(-c3ccccc3)nn2c(=O)c1Br | -0.565
CN(C(=O)c1cccs1)c1ccccc1 | -0.03
